# Laboratory results reported in PubChem BioAssay (Tox21).
# The chains behind the UniProt entries cited, without tags or fusion partners.
# UniProt P14416, whole entry, looked up: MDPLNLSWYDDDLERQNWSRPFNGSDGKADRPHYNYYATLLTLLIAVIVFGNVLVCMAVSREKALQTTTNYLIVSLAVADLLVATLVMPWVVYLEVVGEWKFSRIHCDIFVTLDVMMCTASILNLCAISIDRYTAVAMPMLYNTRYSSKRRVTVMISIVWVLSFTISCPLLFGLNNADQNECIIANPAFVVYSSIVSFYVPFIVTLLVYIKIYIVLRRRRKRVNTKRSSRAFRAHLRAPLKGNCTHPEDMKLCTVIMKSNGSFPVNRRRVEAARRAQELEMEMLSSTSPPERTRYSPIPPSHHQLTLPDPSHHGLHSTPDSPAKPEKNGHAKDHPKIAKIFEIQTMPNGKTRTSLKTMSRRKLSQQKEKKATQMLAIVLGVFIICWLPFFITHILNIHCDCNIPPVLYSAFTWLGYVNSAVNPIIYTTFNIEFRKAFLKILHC
# UniProt P28223, whole entry, looked up: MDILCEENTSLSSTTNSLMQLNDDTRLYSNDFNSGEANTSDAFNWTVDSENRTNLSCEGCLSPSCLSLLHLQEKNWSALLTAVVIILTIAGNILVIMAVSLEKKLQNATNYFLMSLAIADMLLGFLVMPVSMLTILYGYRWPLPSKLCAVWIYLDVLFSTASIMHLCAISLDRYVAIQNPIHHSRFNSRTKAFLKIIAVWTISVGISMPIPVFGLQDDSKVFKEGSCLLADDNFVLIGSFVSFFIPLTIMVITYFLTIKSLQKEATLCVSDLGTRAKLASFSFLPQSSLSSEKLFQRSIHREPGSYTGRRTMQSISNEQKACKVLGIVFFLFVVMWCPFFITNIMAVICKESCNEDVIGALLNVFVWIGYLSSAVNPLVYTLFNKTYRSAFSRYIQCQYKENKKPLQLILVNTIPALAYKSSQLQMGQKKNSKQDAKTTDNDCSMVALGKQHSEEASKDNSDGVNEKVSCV
# Where “and” joins values, the source holds several entries; their conditions need not be identical. Equal entries are not always repeated. Inconclusive means that the source gave no clear call. Such entries were picked first, then a sample of the others. Potencies beside an inconclusive call are fits to weak or partial responses and may not hold up. Where a structure was tested more than once in an assay, its records may differ in their call. Calls of active or inactive are those of the source. Unless noted, calls follow the shape of the full dose curve.
# How the values were obtained:
# [1] = p53 small molecule agonists, cell-based qHTS assay: qHTS cell viability counter screen (AID 1963581); also: nearly all actives have a fitted effect of over 45% in size
# Summary of the method: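 Viability was counter-screened in parallel with the p53 agonist reporter by measuring intracellular ATP luminescence in the same HCT-116 p53RE-bla wells after 16 h compound treatment at 37 C.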
# [2] = target: Beta-2 adrenergic receptor (Homo sapiens) (UniProt P07550); experiment: Adrenergic beta2 receptor (ADRB2) small molecule agonists, cell-based qHTS assay (AID 1963593); details: CHO-ADRB2 cells, cAMP HTRF, 30 min;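 as to activation: CHO cells stably overexpressing human ADRB2; % is scaled to controls: 0 for no effect and ±100 for the full control effect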
# Summary of the method: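 CHO cells stably over-expressing ADRB2 were plated overnight at 37C, then dosed with compounds plus a stimulation mix containing 100uM IBMX and 25uM Ro-20-1724 for 0.5hr at room temperature. cAMP was measured by HTRF competition, 1hr.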
# [3] = cAMP Responsive Elements (CRE) small molecule antagonists, cell-based qHTS assay (AID 1963591; active = well fitted inhibition curve with a large enough effect in the signal ratio in the repeat runs, not every such curve was filed as active; inconclusive = weak or mixed curves, or effect the other way; the % refers to the signal ratio; as to activity change, negative = inhibition: % is scaled to controls: 0 for no effect and ±100 for the full control effect); details: CRE-bla HEK293T, beta-lactamase FRET ratio
# Summary of the method: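 Cells (CRE-bla HEK 293T, DMEM with 10% dialyzed FBS and 25 mM HEPES) are seeded and incubated 18 h. Compounds are added with NKH477 agonist at 0.25 uM final for 3 h, then FRET substrate for 2 h.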
# [4] = target: Beta-2 adrenergic receptor (Homo sapiens) (UniProt P07550); experiment: Adrenergic beta2 receptor (ADRB2) small molecule antagonists, cell-based qHTS assay (AID 1963592); details: CHO-ADRB2 cells, isoproterenol-stimulated cAMP HTRF ratio, 0.5 h; activity change, negative = inhibition: at 92.4 µM (top of the series) unless noted; also: nearly all actives have a fitted effect of over 50% in size; as to activity change, negative = inhibition: % is scaled to controls: 0 for no effect and ±100 for the full control effect
# Summary of the method: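 Assay format: CHO-ADRB2 cells, 18-20hr seeding at 37C/5% CO2, then compound plus 1nM isoproterenol agonist mix for 0.5hr RT. Homogeneous time-resolved fluorescence cAMP detection after 1hr, expressed as 665/615 nm ratio.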
# [5] = target: D(2) dopamine receptor (Homo sapiens) (UniProt P14416); experiment: Dopamine D2 receptor (DRD2) small molecule antagonists, cell-based qHTS assay (AID 1963595; active = well fitted inhibition curve with a large enough effect in the signal ratio in the repeat runs, with a control signal flat; inconclusive = weak or mixed curves, or effect the other way; the % refers to the signal ratio; as to activity change, negative = inhibition: % is scaled to controls: 0 for no effect and ±100 for the full control effect); details: HEK293-DRD2 cAMP HTRF antagonist mode; activity change, negative = inhibition: at 92.4 µM (top of the series) unless noted
# Summary of the method: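 DRD2-HEK293; 0.1 mM Ro20-1724; cpd 10 min RT; NKH477 200 nM + quinpirole 12 nM, 30 min RT; HTRF cAMP (cAMP-d2/anti-cAMP cryptate), 665/620 nm ratio after 1 h.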
# [6] = target: D(2) dopamine receptor (Homo sapiens) (UniProt P14416); experiment: Dopamine D2 receptor (DRD2) small molecule agonists, cell-based qHTS assay (AID 1963594); details: HEK293-DRD2 cAMP HTRF, agonist mode, 30 min; activation: at 92.4 µM (top of the series) unless noted; also: nearly all actives have a fitted effect of over 35% in size
# Summary of the method: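 HEK293 cells stably expressing DRD2 were cultured 24 h at 37 C, then given Ro20-1724 (0.1 mM final) and compounds for 10 min at room temperature. NKH477 (200nM) was then added for 30 min. cAMP was read by HTRF.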
# [7] = cAMP Responsive Elements (CRE) small molecule agonists, cell-based qHTS assay (AID 1963590); details: CRE-bla HEK293T, beta-lactamase FRET ratio, 3 h; activation: at 92.4 µM (top of the series) unless noted
# Summary of the method: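 Cells carrying a CRE-driven beta-lactamase reporter (HEK 293T) are seeded, incubated overnight (18 h), and treated with test compounds for 3 h at 37 C; reporter activity is then detected with a FRET substrate after 2 h at room temperature.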
# [8] = target: 5-hydroxytryptamine receptor 2A (Homo sapiens) (UniProt P28223); experiment: 5-hydroxytryptamine receptor 2A (HTR2A) small molecule agonists, cell-based qHTS assay (AID 1963587); details: HTR2A-CHO cells, calcium flux fluorescence, agonist mode; activation: at 76.8 µM (top of the series); also: nearly all actives have a fitted effect of over 30% in size
# Summary of the method: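 HTR2A-CHO cells, plated 18 h at 37 C/5% CO2, dye-loaded 1 h at 37 C; compounds in DMSO added by pin tool (agonist mode). Intracellular calcium flux read as kinetic fluorescence on FDSS over 2 min at 1 s intervals.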
# [9] = activation: at 92.4 µM (top of the series) unless noted
# [10] = activity change, negative = inhibition: at 92.4 µM (top of the series) unless noted
# Potency is read from the fitted curve at half-maximal effect.
compound,measurement,setting,value
CC(C)C(=O)Cl,Potency,[1],"inconclusive: 5.13 µM [rising, full curve, poor fit]"
same,activation,[2]; [9],inconclusive: 47.9%
O=C(CCCN1CCC2(CC1)C(=O)NCN2c1ccccc1)c1ccc(F)cc1,Potency,[1],inconclusive: 5 µM
same,Potency,[3]; [10],inactive
same,Potency,[4],active: 1.5 µM
same,Potency,[2]; [9],"inconclusive: 1.19 µM [inhibitor, full curve]"
O=S(=O)(O)O,Potency,[1],"inconclusive: 0.0474 µM [cytotoxic, single point]"
same,Potency,[4],"inconclusive: 0.0027 µM [falling, full curve, poor fit]"
same,Potency,[2]; [9],"inconclusive: 34.9 µM [inhibitor, partial curve, poor fit]"
same,activation,[2]; at 8.39 µM (top of the series),inactive: -21.6% and inconclusive: 4.19%
same,Potency,[5],"inconclusive: 0.0017 µM [falling, full curve, poor fit]"
CN1[C@@H]2CC[C@H]1CC(O)C2 (stereo partly specified),Potency,[1],"inconclusive: 6.55 µM [rising, partial curve, poor fit]"
same,Potency,[3]; [10],inactive
same,Potency,[2]; [9],"inconclusive: 0.31 µM [inhibitor, full curve, poor fit]"
C[C@]12CC[C@H](O)CC1=CC[C@@H]1[C@@H]2CC[C@]2(C)C(=O)CC[C@@H]12,Potency,[1],"inconclusive: 18.2 µM [rising, single point]"
same,Potency,[3]; [10],"inconclusive: 34.4 µM [fluorescent, partial curve] and inconclusive: 20.2 µM [fluorescent, full curve, poor fit] and inconclusive: 26.6 µM [activator, partial curve]"
same,Potency,[2]; [9],"inconclusive: 68.7 µM [inhibitor, single point]"
same,activation,[2]; [9],inconclusive: -10.4%
same,activation,[2]; at 42.5 µM (top of the series),inactive: -26.6%
same,Potency,[5],inactive
CC(=O)[O-].[Tl+],Potency,[1],"inconclusive: 46.1 µM [cytotoxic, single point]"
same,Potency,[3]; [10],inconclusive: 69 µM
same,Potency,[2]; [9],"inconclusive: 0.245 µM [inhibitor, full curve, poor fit]"
OC(Cc1ccccc1Cl)(Cn1cncn1)C1(Cl)CC1 (stereo unspecified),Potency,[1],inactive
same,activation,[2]; [9],inconclusive: 4.26%
C[C@]12CC[C@@H](O)C[C@@H]1CC[C@@H]1[C@@H]2CC[C@]2(C)C(=O)CC[C@@H]12,Potency,[1],"inconclusive: 32.4 µM [cytotoxic, partial curve, poor fit]"
same,Potency,[2]; [9],"inconclusive: 4.86 µM [inhibitor, single point]"
O=C(O)COc1ccc(Cl)cc1Cl,Potency,[1],"inconclusive: 18.3 µM [rising, single point]"
same,Potency,[3]; [10],"inconclusive: 24.2 µM [fluorescent, partial curve, poor fit] and inconclusive: 22.7 µM [fluorescent, partial curve]"
same,"activity change, negative = inhibition",[3]; [10],inconclusive: 5.15% and inconclusive: 15.1%
same,"activity change, negative = inhibition",[3]; at 92.4 µM (top of the series),inactive: -2.04% and inactive: -0.313%
same,Potency,[2]; [9],"inconclusive: 243 nM [inhibitor, single point] and inconclusive: 611 nM [inhibitor, single point]"
same,activation,[2]; [9],inconclusive: 3.05%
same,activation,[2]; at 92.4 µM (top of the series),inactive: -28.6% and inactive: 23.3% and inactive: 2.79%
same,Potency,[6],"inconclusive: 10.9 µM [rising, partial curve, poor fit]"
Oc1cccc2cccnc12,Potency,[1],"inconclusive: 146 nM [cytotoxic, single point] and inconclusive: 1.62 µM [cytotoxic]"
same,Potency,[7],"inconclusive: 68.6 µM [rising, single point]"
same,Potency,[2]; [9],"inconclusive: 0.0137 µM [inhibitor, full curve, poor fit]"
same,activation,[2]; [9],inconclusive: 51.5%
same,activation,[2]; at 42.5 µM (top of the series),inactive: -34%
same,activation,[2]; at 92.4 µM (top of the series),inactive: -7.75%
same,Potency,[6],"inconclusive: 27.3 µM [falling, partial curve, poor fit]"
CCOc1ccc(C(C)(C)COCc2cccc(Oc3ccccc3)c2)cc1,Potency,[1],"inconclusive: 20.4 µM [cytotoxic, single point]"
same,activation,[2]; [9],inconclusive: 8.62%
BrCC1CO1 (stereo unspecified),Potency,[1],"inconclusive: 18.3 µM [rising, single point]"
same,Potency,[3]; [10],inactive
same,activation,[2]; [9],inconclusive: 1.18%
CCOC(=O)c1ccccc1S(=O)(=O)NC(=O)Nc1nc(Cl)cc(OC)n1,Potency,[1],inactive
same,activation,[2]; [9],inconclusive: -2.02%
CN(C)CCc1c[nH]c2cccc(O)c12,Potency,[1],"inconclusive: 3.21 µM [rising, full curve, poor fit]"
same,Potency,[4],inconclusive: 27 µM [partial curve]
same,Potency,[2]; [9],inconclusive: 27 µM [partial curve]
same,Potency,[6],inconclusive: 62.9 µM
same,Potency,[5],"inconclusive: 53.9 µM [cytotoxic, partial curve]"
NN=C(N)N,Potency,[1],"inconclusive: 18.2 µM [cytotoxic, partial curve, poor fit]"
same,Potency,[4],inactive
same,Potency,[2]; [9],inactive
same,Potency,[6],"inconclusive: 2.11 µM [rising, partial curve, poor fit]"
CCCCCCI,Potency,[1],inactive
same,activation,[2]; [9],inconclusive: 15.5%
Cc1ccc([N+](=O)[O-])cc1C,Potency,[1],inactive
same,Potency,[7],inactive
same,Potency,[2]; [9],"inconclusive: 239 nM [inhibitor, full curve, poor fit] and inactive"
same,activation,[6],inconclusive: 6.98%
Nc1ccccc1,Potency,[8],"inconclusive: 4.99 µM [activator, single point]"
NCc1cccnc1,activation,[2]; at 42.5 µM (top of the series),inactive: -1.8%

# An excerpt of the results above:
compound,measurement,setting,value
Oc1cccc2cccnc12,Potency,[1],"inconclusive: 146 nM [cytotoxic, single point] and inconclusive: 1.62 µM [cytotoxic]"
same,Potency,[7],"inconclusive: 68.6 µM [rising, single point]"
same,Potency,[2]; [9],"inconclusive: 0.0137 µM [inhibitor, full curve, poor fit]"
same,activation,[2]; [9],inconclusive: 51.5%
same,activation,[2]; at 42.5 µM (top of the series),inactive: -34%
